Measured values reported in US8609724B2, “Method of treating cancer using dichloroacetate” (priority 2005, dated 2013).
Entries after “also recorded” stand apart in the source; their conditions may differ. For at least one compound, name, drawing or mass did not settle the structure.

Key:
cytochrome-c = assay: Cytochrome c release from mitochondria (immunostaining, mitotracker red, confocal); assay type: cell-based, human; details: 48H DCA; A549, MCF-7 and MO59K
A549 and MO59K = assay: DNA microarray (Affymetrix U133A); assay type: cell-based, human; details: DCA 500 μM for 48H; significant if ≧1.75 fold
[1] = system: normal epithelial cells (EC); assay: Mitochondrial membrane potential (TMRM, confocal microscopy); assay type: cell-based, human; details: 48H DCA 500 μM
A549 cells [2] = assay: H2O2 production (Amplex Red); assay type: cell-based, human
Kv1.5 = Kv1.5 expression (qRT-PCR and immunoblotting); assay type: cell-based, human
MO59K [3] = assay: Mitochondrial membrane potential (TMRM, confocal microscopy); assay type: cell-based, human; details: 48H DCA 500 μM
normal epithelial cells = assay: Whole cell electrophysiology, K+ current; assay type: cell-based, human; details: 48H DCA 500 μM
MO59K [4] = assay: Whole cell electrophysiology, K+ current; assay type: cell-based, human; details: 48H DCA 500 μM
A549 [5] = assay: Whole cell electrophysiology, K+ current; assay type: cell-based, human
AIF = AIF translocation to nucleus (immunostaining, DAPI, confocal); assay type: cell-based, human; details: 48H DCA; A549, MCF-7 and MO59K
A549 cells [6] = assay: Apoptosis in vitro (Annexin V, TUNEL); assay type: cell-based, human; details: DCA 500 μM
caspase 3 and 9 = assay: Caspase 3 and 9 immunoblots; assay type: cell-based, human; details: immunoblot active band
MCF-7 [7] = assay: Whole cell electrophysiology, K+ current; assay type: cell-based, human; details: 48H DCA 500 μM
cancer cells [8] = assay: Free cytosolic calcium (fluo-3, confocal); assay type: cell-based, human
A549 [9] = assay: Mitochondrial membrane potential (TMRM, confocal microscopy); assay type: cell-based, human; details: 48H DCA 500 μM
MCF-7 [10] = assay: as above; assay type: cell-based, human; details: 48H DCA 500 μM
NFAT = NFAT and Kv1.5 confocal imaging; assay type: cell-based, human; details: A549 cells
Method: Imaging was performed using a Zeiss LSM 510 confocal microscope as described. Apoptag apoptosis detection kit (TUNEL stain, Serologicals, Norcross, Ga.) and the proliferating cell nuclear antigen (PCNA) antibody (DAKO, Carpinteria, Calif.) were used as per manufacturer's instructions on both formaldehyde fixed cells and paraffin-embedded tissue sections after antigen retrieval. Nuclear staining was made using 4′,6′-diamidino-2-phenylindole dihydrochloride (DAPI, 300 nM; Molecular Probes) in fixed tissue or cells as previously described Apoalert Annexin V kit (Clontech, Palo Alto, Calif.), cytochrome c antibody (Pharmingen, San Diego, Calif.), Apoptosis inducing factor (Santa Cruz Calif. USA) NFAT and Kv1.5 (Sigma) and mitotracker red (500 nM, Molecular Probes) were used as described by the company instructions. Mitochondrial membrane potential (ΔΨm) was studied in live cancer cultured cells, using tetramethylrhodamine methyl-ester perchlorate (TMRM) (20 nmol/L) for 30 minutes (37° C.) and Hoechst (1.0 umol/L) nuclear staining for 10 minutes (Molecular Probes, Canada).

A549 tumors = assay: Tumorigenicity assay in nude rats (A549 cells s.c.); assay type: in vivo, athymic nude rats
cancer cells [11] = assay: Whole cell electrophysiology, membrane capacitance and resting membrane potential; assay type: cell-based, human; details: 48H DCA 500 μM
[12] = DCA treated rats, immunohistochemistry, immunoblotting

O=C(O)C(Cl)Cl [DCA, dichloroacetate]
cytochrome-c localization (cytochrome-c): causes leakage of cytochrome c to the cytoplasm; also recorded: leaked out the mitochondria and is localized into the cytosol | Kv1.5 gene expression (gene chip) (A549 and MO59K): significantly upregulated | mitochondrial membrane potential [1]: did not alter the mitochondrial membrane potential; also recorded: had no effect | H2O2 production (A549 cells [2]; DCA 50, 500 and 5000 μM for 4 hours): increased H2O2 production in A549 cells in a dose-dependent manner; also recorded: increases H2O2 production in a rotenone and dose-dependent manner | effect of DCA on H2O2 production in presence of rotenone (A549 cells [2]; rotenone (complex I inhibitor)): totally inhibited by rotenone | Kv1.5 protein (Kv1.5; DCA 48 hrs, immunoblotting): increased | Kv1.5 mRNA (Kv1.5; DCA 48 hrs, qRT-PCR): increased | survivin/Kv1.5 index in vitro (Kv1.5; tumor cell lines): reversed this index | mitochondrial membrane potential (MO59K [3]): significantly depolarized the mitochondria | K+ current density (normal epithelial cells): does not affect normal cells | K+ current density (MO59K [4]): increases K+ current density | K+ current density (A549 [5]; 48H DCA 500 μM, A549): increases K+ current density | K+ current, acute exposure (A549 [5]; DCA 500 μM superfused 5 to 10 minutes, A549): caused an increased K^+ current | acute effect of DCA on K+ current in presence of 4-AP, catalase or rotenone (A549 [5]; DCA 10 min 500 μM): blocked by 4-AP and blocked by both catalase and rotenone | acute effect of DCA on K+ current in presence of TTFA (complex II blocker) (A549 [5]; DCA 10 min 500 μM, TTFA 50 μM): not by TTFA; also recorded: did not prevent the effects of DCA | AIF localization (AIF): translocation of AIF to the nucleus; also recorded: mainly localized into the nucleus | Annexin V positive cells (A549 cells [6]): higher number | TUNEL positive cells (A549 cells [6]): higher number | caspase 3 activation (caspase 3 and 9): activation | caspase 9 activation (caspase 3 and 9): activation | K+ current density (MCF-7 [7]): increases K+ current density | free cytosolic calcium concentration, acute DCA (cancer cells [8]; acute exposure, 4-AP and rotenone): decreased the calcium concentration through a 4-AP and rotenone sensitive pathway | free cytosolic calcium concentration (cancer cells [8]; treated vs control cells, fluo-3): significant decrease of the [C++]; also recorded: Control cells had more calcium than both DCA and H2O2 treated cells | mitochondrial membrane potential (A549 [9]): significantly depolarized the mitochondria | mitochondrial membrane potential (MCF-7 [10]): significantly depolarized the mitochondria | Kv1.5 expression (confocal immunostaining) (NFAT): increased Kv1.5 expression | NFAT activation (nuclear localization) (NFAT): blocked the activation of NFAT | tumor size (caliper, weight, MRI), reversal protocol (A549 tumors; DCA 0.075 g/L drinking water from 2 weeks post injection for 3 weeks): smaller tumors; also recorded: significant decrease in the tumor size | tumor size (caliper, weight, MRI), prevention protocol (A549 tumors; DCA 0.075 g/L drinking water from day 0 for 5 weeks): smaller tumors; also recorded: significant decrease in the tumor size | tumor apoptosis (TUNEL) (A549 tumors; DCA treated rats): increase in apoptosis | tumor proliferation (PCNA and survivin) (A549 tumors; DCA treated rats): decrease in proliferation | tumor Kv1.5 expression (A549 tumors; [12]): increased Kv1.5 expression | tumor survivin expression (A549 tumors; [12]): decreased survivin expression | survivin/Kv1.5 index in vivo (A549 tumors; rat, in vivo): reversed this index | membrane capacitance (cancer cells [11]): significant decrease in membrane capacitance | resting membrane potential (cancer cells [11]): repolarization of the resting membrane potential
